Results: patent US20130296436A1, “AMIDINE COMPOUNDS AND USE THEREOF FOR PLANT DISEASE CONTROL” (SUMITOMO CHEMICAL COMPANY, LIMITED, priority 2010, published 2013)
Some entries share one result that the patent states for a list of compounds.

Tests used:
Format in all cases: in vivo
Pyrenophora teres = test: Test Example 6: barley Pyrenophora teres, foliar application before inoculation, 200 ppm; conditions: barley (Nishinohoshi), 200 ppm foliar application, inoculated two days after, 3 days + 7 days
[1] = test system: powdery mildew (Sphaerotheca fuliginea); test: Test Example 4: cucumber powdery mildew, foliar application before inoculation, 200 ppm; conditions: cucumber (Sagamihanjiro), 200 ppm foliar application, then inoculated, 11 days
Septoria tritici = test: Test Example 5: wheat Septoria tritici, foliar application before inoculation; conditions: wheat (Apogee), 200 ppm foliar application, inoculated two days after, 3 days + 14 to 18 days
[2] = test system: powdery mildew (Sphaerotheca fuliginea); test: Test Example 7: cucumber powdery mildew, foliar application before inoculation, 50 ppm; conditions: cucumber (Sagamihanjiro), 50 ppm foliar application, then inoculated, 11 days
Phakopsora pachyrhizi = test: Test Example 10: soybean Phakopsora pachyrhizi, foliar application after inoculation; conditions: soybean (Kurosengoku), 200 ppm foliar application one day after inoculation, 14 days

Compound | lesion area on the treated plant relative to the area of lesions on an untreated plant (Pyrenophora teres) [%] | area of lesions on the treated plant relative to the area of lesions on an untreated plant [1] [%] | lesion area on the treated plant relative to the area of lesions on an untreated plant (Septoria tritici) [%] | area of lesions on the treated plant relative to the area of lesions on an untreated plant [2] [%] | lesion area on the treated plant relative to the area of lesions on an untreated plant (Phakopsora pachyrhizi) [%]
CCN(C)/C=N/c1cc(C)c(OCC(F)(F)C(F)C(F)(F)F)cc1C (centres unmarked) [present compound 1] | ≤ 30 | ≤ 30 | ≤ 30 | – | –
CCN(C)/C=N/c1cc(C)c(OCC(F)(F)C(F)F)cc1C [present compound 2] | ≤ 30 | ≤ 30 | – | – | –
CCN(C)/C=N/c1cc(C)c(OCC(F)(F)F)cc1C [present compound 3] | – | ≤ 30 | – | – | –
CCN(C)/C=N/c1cc(C)c(OCC(F)(F)C(F)(F)F)cc1C [present compound 4] | – | ≤ 30 | – | – | –
CCN(C)/C=N/c1cc(C)c(OCC(F)(F)C(F)(F)C(F)(F)C(F)(F)C(F)(F)F)cc1C [present compound 7] | – | – | – | ≤ 30 | –
CCN(C)/C=N/c1cc(C)c(OCC(F)(F)C(F)(F)C(F)(F)C(F)(F)C(F)(F)C(F)(F)F)cc1C [present compound 8] | ≤ 30 | ≤ 30 | ≤ 30 | – | –
CCN(C)/C=N/c1cc(C)c(OCC(F)(F)C(F)(F)C(F)(F)C(F)(F)C(F)(F)C(F)(F)C(F)(F)F)cc1C [present compound 9] | – | ≤ 30 | – | – | –
CCN(C)/C=N/c1cc(C)c(OCC(F)(F)C(F)(F)C(F)(F)C(F)(F)C(F)(F)C(F)(F)C(F)(F)C(F)(F)F)cc1C [present compound 10] | – | ≤ 30 | – | – | –
CCN(C)/C=N/c1cc(C)c(OCC(F)(F)C(F)(F)C(F)(F)C(F)(F)C(F)(F)C(F)(F)C(F)(F)C(F)(F)C(F)(F)F)cc1C [present compound 11] | – | ≤ 30 | – | – | –
CCN(C)/C=N/c1cc(C)c(OCC(F)(F)C(F)(F)C(F)(F)C(F)(F)C(F)(F)C(F)(F)C(F)(F)C(F)(F)C(F)(F)C(F)(F)F)cc1C [present compound 12] | – | ≤ 30 | – | – | –
CCN(C)/C=N/c1cc(C)c(OCCCC(F)(F)F)cc1C [present compound 13] | ≤ 30 | ≤ 30 | – | – | –
CCN(C)/C=N/c1cc(C)c(OCCCCCC(F)(F)F)cc1C [present compound 14] | ≤ 30 | ≤ 30 | – | – | –
CCN(C)/C=N/c1cc(C)c(OCC(F)(F)CC(C)(C)C)cc1C [present compound 15] | ≤ 30 | ≤ 30 | ≤ 30 | – | ≤ 30
CCN(C)/C=N/c1cc(C)c(OCC(F)(F)CC)cc1C [present compound 16] | ≤ 30 | – | ≤ 30 | – | –
CCN(C)/C=N/c1cc(C)c(OCC(F)(F)CC(C)C)cc1C [present compound 17] | ≤ 30 | ≤ 30 | – | – | –
CCN(/C=N/c1cc(C)c(OCC(F)(F)CC(C)(C)C)cc1C)CC [present compound 18] | – | ≤ 30 | ≤ 30 | – | –
Cc1cc(OCC(F)(F)CC(C)(C)C)c(C)cc1/N=C/N(C)C [present compound 19] | – | ≤ 30 | ≤ 30 | – | –
CCCN(C)/C=N/c1cc(C)c(OCC(F)(F)CC(C)(C)C)cc1C [present compound 20] | ≤ 30 | ≤ 30 | ≤ 30 | – | –
Cc1cc(OCC(F)(F)CC(C)(C)C)c(C)cc1/N=C/N(C)C(C)C [present compound 21] | ≤ 30 | ≤ 30 | ≤ 30 | – | –
Cc1cc(OCC(F)(F)CC(C)(C)C)c(C)cc1/N=C/N(C)C1CC1 [present compound 22] | ≤ 30 | ≤ 30 | ≤ 30 | – | –
Cc1cc(OCC(F)(F)CC(C)(C)C)c(C)cc1/N=C/N(C)C1CCCC1 [present compound 23] | ≤ 30 | – | – | – | –
Cc1cc(OCC(F)(F)CC(C)(C)C)c(C)cc1/N=C/N(C)C1CCCCC1 [present compound 24] | – | – | ≤ 30 | – | –
Cc1cc(OCC(F)(F)CC(C)(C)C)c(C)cc1/N=C/N(C)C1CCC1 [present compound 25] | ≤ 30 | – | ≤ 30 | – | –
CCN(C)/C=N/c1cc(C)c(OC/C(F)=C/C(C)(C)C)cc1C [present compound 26] | – | ≤ 30 | – | – | ≤ 30
Cc1cc(OCC#CC(F)(F)F)c(C)cc1/N=C/N(C)C [present compound 27] | – | – | – | – | ≤ 30
